Results published in the supplement of paper PMC10849652.
This is one part of the list.

The chains behind the UniProt entries cited, without tags or fusion partners. Where a name states a change or a piece, a line headed by the entry shows the natural chain unless it says otherwise.
UniProt P31937: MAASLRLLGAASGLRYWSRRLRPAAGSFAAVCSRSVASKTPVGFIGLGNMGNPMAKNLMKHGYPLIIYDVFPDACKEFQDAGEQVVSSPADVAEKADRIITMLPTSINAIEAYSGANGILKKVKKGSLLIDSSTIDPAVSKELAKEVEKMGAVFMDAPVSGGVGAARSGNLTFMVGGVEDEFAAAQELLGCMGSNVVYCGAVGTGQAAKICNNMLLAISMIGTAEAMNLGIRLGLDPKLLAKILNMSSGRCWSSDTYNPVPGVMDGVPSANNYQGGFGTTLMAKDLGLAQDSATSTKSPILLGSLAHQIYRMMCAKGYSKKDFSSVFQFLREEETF
UniProt Q53GQ0: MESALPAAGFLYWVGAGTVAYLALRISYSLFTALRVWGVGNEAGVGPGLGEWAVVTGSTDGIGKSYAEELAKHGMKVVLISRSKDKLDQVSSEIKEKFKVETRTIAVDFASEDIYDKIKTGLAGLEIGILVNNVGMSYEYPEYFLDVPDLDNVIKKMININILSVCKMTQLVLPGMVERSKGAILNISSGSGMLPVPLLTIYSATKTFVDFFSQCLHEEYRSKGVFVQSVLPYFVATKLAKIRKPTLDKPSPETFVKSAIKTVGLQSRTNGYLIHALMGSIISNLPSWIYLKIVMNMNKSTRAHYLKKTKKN
UniProt Q00613: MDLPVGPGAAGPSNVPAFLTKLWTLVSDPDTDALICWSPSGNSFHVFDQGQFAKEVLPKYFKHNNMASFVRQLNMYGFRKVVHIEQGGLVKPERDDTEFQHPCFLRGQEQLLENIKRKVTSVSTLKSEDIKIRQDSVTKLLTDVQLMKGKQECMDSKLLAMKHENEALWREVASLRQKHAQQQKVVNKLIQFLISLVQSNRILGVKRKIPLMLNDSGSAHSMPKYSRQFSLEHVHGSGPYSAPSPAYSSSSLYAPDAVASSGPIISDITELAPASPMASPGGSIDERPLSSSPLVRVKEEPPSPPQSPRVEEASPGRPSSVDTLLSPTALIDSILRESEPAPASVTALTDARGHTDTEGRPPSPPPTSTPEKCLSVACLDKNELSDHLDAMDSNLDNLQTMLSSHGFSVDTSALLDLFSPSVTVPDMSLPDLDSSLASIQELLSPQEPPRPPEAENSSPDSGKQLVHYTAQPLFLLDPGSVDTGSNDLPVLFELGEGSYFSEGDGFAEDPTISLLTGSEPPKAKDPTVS
UniProt Q99729: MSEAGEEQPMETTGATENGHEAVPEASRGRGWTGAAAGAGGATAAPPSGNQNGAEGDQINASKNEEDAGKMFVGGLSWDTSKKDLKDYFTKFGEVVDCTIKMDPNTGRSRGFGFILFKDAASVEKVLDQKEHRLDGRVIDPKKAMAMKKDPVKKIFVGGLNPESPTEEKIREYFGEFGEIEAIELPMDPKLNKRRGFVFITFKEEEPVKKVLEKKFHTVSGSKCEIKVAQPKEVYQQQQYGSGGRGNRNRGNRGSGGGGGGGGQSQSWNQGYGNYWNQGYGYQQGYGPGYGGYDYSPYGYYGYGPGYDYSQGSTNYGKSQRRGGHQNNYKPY
UniProt P26583: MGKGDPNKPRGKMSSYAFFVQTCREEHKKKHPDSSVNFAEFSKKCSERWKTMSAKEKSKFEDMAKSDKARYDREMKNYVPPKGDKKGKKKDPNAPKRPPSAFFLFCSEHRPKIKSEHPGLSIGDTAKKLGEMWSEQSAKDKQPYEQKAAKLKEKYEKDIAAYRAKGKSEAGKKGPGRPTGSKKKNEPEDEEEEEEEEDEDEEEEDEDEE
UniProt Q14527: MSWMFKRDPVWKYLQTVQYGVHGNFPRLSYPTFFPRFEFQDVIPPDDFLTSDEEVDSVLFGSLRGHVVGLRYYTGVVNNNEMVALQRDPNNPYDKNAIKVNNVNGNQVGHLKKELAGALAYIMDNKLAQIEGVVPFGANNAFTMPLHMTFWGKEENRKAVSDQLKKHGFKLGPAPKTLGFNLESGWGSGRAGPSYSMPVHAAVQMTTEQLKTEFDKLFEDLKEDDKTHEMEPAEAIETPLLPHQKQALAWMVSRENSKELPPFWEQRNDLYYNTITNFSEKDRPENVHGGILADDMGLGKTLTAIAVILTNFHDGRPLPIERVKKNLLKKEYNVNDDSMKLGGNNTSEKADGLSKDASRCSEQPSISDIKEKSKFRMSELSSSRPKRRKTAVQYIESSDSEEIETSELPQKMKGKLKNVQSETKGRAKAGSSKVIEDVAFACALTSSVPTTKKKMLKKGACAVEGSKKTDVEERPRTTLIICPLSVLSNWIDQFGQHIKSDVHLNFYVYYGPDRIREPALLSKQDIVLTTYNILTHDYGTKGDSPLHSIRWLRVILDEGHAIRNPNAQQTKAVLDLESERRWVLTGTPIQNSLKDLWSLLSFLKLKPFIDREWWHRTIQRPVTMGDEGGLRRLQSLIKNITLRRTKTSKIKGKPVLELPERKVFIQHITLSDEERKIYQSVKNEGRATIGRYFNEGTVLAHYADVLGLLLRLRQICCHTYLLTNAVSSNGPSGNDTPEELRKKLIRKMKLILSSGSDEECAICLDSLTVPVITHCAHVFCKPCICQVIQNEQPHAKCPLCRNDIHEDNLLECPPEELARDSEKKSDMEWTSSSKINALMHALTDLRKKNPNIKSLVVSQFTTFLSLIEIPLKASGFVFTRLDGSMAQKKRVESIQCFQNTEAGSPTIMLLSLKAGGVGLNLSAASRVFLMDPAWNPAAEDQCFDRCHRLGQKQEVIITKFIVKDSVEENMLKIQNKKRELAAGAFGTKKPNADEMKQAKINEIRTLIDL
UniProt Q9NRV9: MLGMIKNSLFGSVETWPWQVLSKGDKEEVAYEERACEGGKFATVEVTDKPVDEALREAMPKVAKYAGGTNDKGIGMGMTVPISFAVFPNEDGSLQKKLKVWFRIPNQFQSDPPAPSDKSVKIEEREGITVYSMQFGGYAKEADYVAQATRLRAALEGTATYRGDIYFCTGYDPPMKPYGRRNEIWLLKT
UniProt P14866: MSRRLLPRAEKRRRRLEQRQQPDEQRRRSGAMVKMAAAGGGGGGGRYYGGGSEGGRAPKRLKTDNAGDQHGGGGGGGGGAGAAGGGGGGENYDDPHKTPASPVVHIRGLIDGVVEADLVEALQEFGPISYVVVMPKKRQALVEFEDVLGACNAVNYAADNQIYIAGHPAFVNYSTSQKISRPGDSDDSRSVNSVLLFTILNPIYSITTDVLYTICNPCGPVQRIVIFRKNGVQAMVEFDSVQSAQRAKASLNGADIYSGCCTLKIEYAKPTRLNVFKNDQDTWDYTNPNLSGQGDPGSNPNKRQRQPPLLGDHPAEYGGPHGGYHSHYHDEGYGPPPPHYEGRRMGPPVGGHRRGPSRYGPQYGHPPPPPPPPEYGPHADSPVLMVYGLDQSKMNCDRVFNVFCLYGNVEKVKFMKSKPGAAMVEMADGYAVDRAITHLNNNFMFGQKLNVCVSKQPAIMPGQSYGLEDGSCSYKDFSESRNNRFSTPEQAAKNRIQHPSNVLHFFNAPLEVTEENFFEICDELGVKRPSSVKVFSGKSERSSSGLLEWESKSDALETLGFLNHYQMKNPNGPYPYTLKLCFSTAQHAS
UniProt Q03014: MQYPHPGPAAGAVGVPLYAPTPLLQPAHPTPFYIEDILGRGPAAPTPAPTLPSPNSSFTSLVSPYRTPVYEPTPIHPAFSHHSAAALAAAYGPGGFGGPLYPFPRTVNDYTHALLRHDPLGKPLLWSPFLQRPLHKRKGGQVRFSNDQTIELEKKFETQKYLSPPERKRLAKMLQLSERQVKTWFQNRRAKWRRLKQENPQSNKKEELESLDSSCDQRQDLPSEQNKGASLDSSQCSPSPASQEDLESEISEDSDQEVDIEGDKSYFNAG
UniProt P42694: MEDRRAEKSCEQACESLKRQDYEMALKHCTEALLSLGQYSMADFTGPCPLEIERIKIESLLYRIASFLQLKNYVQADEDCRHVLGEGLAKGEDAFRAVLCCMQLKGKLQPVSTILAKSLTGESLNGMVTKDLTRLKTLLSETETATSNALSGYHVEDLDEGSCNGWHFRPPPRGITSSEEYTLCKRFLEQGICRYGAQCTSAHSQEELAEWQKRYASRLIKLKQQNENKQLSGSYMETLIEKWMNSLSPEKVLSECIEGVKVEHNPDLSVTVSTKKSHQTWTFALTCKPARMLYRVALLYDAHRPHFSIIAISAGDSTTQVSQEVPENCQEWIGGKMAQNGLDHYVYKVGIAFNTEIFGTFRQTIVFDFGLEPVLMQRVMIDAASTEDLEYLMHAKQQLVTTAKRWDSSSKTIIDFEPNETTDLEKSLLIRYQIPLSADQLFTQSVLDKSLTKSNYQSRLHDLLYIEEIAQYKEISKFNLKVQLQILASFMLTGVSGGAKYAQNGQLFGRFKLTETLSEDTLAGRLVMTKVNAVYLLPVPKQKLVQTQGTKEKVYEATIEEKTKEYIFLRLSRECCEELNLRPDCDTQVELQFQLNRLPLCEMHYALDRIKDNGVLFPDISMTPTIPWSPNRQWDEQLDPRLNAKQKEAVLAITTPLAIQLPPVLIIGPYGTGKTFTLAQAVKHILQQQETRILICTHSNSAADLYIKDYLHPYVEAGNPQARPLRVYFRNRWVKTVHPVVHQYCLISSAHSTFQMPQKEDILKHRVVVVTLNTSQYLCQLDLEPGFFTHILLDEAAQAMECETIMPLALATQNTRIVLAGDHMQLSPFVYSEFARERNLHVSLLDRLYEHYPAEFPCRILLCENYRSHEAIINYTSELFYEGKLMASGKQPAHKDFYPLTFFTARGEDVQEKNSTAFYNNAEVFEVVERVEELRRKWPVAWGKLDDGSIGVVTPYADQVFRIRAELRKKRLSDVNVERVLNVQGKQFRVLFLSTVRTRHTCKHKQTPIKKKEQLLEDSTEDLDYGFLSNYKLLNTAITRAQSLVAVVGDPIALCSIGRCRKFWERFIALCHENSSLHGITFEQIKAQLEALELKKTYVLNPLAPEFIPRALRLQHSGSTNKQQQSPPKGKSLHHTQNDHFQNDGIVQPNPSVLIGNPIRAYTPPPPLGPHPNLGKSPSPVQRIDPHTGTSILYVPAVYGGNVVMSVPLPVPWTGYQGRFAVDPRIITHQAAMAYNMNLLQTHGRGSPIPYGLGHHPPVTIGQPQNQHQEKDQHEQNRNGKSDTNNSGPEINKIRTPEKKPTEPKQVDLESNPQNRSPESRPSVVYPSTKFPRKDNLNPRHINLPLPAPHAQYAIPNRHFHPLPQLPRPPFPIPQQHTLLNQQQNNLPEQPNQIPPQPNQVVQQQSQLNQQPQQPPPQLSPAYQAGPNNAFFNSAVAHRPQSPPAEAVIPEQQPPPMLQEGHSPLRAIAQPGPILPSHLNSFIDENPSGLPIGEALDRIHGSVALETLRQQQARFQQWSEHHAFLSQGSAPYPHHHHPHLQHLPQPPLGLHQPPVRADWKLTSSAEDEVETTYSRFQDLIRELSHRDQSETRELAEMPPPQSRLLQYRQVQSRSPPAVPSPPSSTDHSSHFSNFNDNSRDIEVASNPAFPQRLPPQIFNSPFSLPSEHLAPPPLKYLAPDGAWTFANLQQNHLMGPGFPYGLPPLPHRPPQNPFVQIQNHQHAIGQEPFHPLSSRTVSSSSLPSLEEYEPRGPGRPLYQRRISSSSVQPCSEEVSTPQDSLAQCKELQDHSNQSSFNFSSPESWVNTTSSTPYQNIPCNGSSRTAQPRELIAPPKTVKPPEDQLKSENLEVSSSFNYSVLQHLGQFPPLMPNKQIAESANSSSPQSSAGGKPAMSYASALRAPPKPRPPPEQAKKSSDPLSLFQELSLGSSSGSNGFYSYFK
UniProt Q92902: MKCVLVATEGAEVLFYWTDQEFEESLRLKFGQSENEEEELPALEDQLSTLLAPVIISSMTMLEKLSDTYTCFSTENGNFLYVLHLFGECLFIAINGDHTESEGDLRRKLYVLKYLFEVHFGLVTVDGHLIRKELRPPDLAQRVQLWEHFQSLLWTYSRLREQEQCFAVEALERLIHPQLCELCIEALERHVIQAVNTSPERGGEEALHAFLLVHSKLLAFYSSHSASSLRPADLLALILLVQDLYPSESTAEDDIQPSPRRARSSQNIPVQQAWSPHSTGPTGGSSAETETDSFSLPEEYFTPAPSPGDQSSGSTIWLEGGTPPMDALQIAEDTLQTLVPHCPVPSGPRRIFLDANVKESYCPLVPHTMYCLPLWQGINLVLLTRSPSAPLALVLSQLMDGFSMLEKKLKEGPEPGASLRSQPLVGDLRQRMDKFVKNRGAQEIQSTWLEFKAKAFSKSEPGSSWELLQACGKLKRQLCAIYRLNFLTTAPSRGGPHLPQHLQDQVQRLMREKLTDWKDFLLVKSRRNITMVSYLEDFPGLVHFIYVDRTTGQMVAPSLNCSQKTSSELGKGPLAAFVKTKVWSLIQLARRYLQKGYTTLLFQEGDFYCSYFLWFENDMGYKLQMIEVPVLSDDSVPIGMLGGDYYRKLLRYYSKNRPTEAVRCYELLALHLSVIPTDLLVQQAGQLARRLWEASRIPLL

Experiments:
Test in all cases: log2 fold change, soluble protein after heating vs DMSO (PISA); higher = thermal stabilisation; K562 lysate, 10 uM; active = over 0.2 and 3.5 SD of the protein, either way, in both replicates (recomputed)
[1] = compound: C1=CC=C(C=C1)[C@H](COC2=CC3=C(C=C2)NC(=O)N3)NC(=O)C4=CC=CN(C4=O)CC5=CC(=C(C=C5)F)F
Outline: (§1)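 Following dounce homogenisation of K562 pellets in PBS pH 7.4 with 1 mM MgCl2, crude extract at 1 mg/mL protein was incubated for 30 min with 10 μM compound. Aliquots were then heated for 3 min over 48°C-58°C and pooled, NP-40 was added to 0.5% at 4°C, and soluble protein was recovered as the supernatant at 21,000xg for 90 min. Channel-sum-equalised TMTpro 16plex LC-MS/MS quantified this protein. Each value, from duplicates, is a log-two fold change in thermal stability relative to solvent controls.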

[2] = compound: CC1=C(SC2=C1C(=N[C@H](C3=NN=C(N32)C)CC(=O)N)C4=CC=C(C=C4)Cl)C
Outline: as §1

[3] = compound: CC1=C2C(=CC=C1)N=C(N(C2=O)C3=CC=CC=C3C)CN4C=NC5=C(N=CN=C54)N
Outline: as §1

[4] = compound: Cc1sc2c(c1C)C(c1ccc(Cl)cc1)=N[C@@H](CC(=O)OC(C)(C)C)c1nnc(C)n1-2
Outline: as §1

[5] = compound: c1ccc([C@@H]2C[C@H]2NC2CCNCC2)cc1
Outline: as §1

Measured: log2 fold change

HIBADH (UniProt P31937)
inactive: [1] 0.005 | [2] 0.07 | [3] 0.002 | [4] -0.033 | [5] 0

HSD17B12 (UniProt Q53GQ0)
inactive: [1] -0.127 | [2] -0.006 | [3] 0.059 | [4] 0.031 | [5] -0.108

HMOX2 (UniProt P30519)
inactive: [1] 0.104 | [2] 0.018 | [3] 0.126 | [4] 0.037 | [5] -0.011

HSF1 (UniProt Q00613)
inactive: [1] -0.032 | [2] -0.013 | [3] 0.005 | [4] 0.008 | [5] 0.07

HP1BP3 (UniProt Q5SSJ5)
inactive: [1] 0.007 | [2] -0.006 | [3] 0.012 | [4] -0.078 | [5] -0.021

HNRNPAB isoform 3 (UniProt Q99729)
inactive: [1] -0.015 | [2] 0.023 | [3] -0.025 | [4] 0.01 | [5] -0.069

HMGB2 (UniProt P26583)
inactive: [1] 0.022 | [2] -0.069 | [3] -0.03 | [4] 0.036 | [5] 0.161

HLTF (UniProt Q14527)
inactive: [1] -0.053 | [2] -0.006 | [3] -0.065 | [4] 0.028 | [5] 0.011

HIST2H2AA3 (UniProt Q6FI13)
inactive: [1] 0.017 | [2] 0 | [3] -0.111 | [4] 0.268 | [5] 0.277

HERC4 (UniProt Q5GLZ8)
inactive: [1] 0.039 | [2] -0.001 | [3] 0.019 | [4] -0.02 | [5] -0.019

HNRNPA1 (UniProt P09651)
inactive: [1] -0.004 | [2] 0.017 | [3] 0.002 | [4] 0.081 | [5] 0.042

HMG20B (UniProt Q9P0W2)
inactive: [1] -0.014 | [2] 0.045 | [3] -0.068 | [4] -0.103 | [5] 0.177

HNRNPR isoform 2 (UniProt O43390)
inactive: [1] 0.009 | [2] 0.004 | [3] -0.014 | [4] 0.039 | [5] 0.031

HRC (UniProt P23327)
inactive: [1] 0.01 | [2] 0 | [3] -0.003 | [4] -0.077 | [5] -0.056

HIP1 (UniProt O00291)
inactive: [1] 0.004 | [2] 0.023 | [3] 0.047 | [4] -0.067 | [5] -0.039

Two entries picked at random from the list so far, as already listed:
HRC (UniProt P23327)
inactive: [1] 0.01 | [2] 0 | [3] -0.003 | [4] -0.077 | [5] -0.056

HIP1 (UniProt O00291)
inactive: [1] 0.004 | [2] 0.023 | [3] 0.047 | [4] -0.067 | [5] -0.039

(next part)

HEBP1 (UniProt Q9NRV9)
inactive: [1] 0.168 | [2] -0.035 | [3] -0.001 | [4] 0.023 | [5] -0.037

HNRNPL (UniProt P14866)
inactive: [1] -0.01 | [2] -0.024 | [3] 0.04 | [4] 0.039 | [5] 0.071

HOMER1 (UniProt Q86YM7)
inactive: [1] -0.003 | [2] -0.026 | [3] -0.023 | [4] 0 | [5] 0.08

HSD17B7 (UniProt P56937)
inactive: [1] 0.028 | [2] -0.033 | [3] -0.037 | [4] -0.094 | [5] 0.165

HHEX (UniProt Q03014)
inactive: [1] -0.06 | [2] 0.084 | [3] -0.013 | [4] 0.024 | [5] -0.068

HECTD3 (UniProt Q5T447)
inactive: [1] -0.06 | [2] 0.038 | [3] 0.046 | [4] 0.034 | [5] 0.06

HSP90AA1 isoform 2 (UniProt P07900)
inactive: [1] 0.002 | [2] 0.004 | [3] -0.014 | [4] 0.002 | [5] 0.037

HELZ (UniProt P42694)
inactive: [1] -0.081 | [2] 0 | [3] 0.005 | [4] 0.066 | [5] -0.047

HPS1 (UniProt Q92902)
inactive: [1] 0.019 | [2] -0.063 | [3] 0.062 | [4] -0.062 | [5] -0.042
